Experimental data published in article PMC10366548.
These are yes or no findings as the source states them, for the method shown. In cells and extracts the contact can be indirect. Some entries that bind do so weakly or less than the wild type.

The chains behind the UniProt entries cited, without tags or fusion partners.
UniProt Q91738: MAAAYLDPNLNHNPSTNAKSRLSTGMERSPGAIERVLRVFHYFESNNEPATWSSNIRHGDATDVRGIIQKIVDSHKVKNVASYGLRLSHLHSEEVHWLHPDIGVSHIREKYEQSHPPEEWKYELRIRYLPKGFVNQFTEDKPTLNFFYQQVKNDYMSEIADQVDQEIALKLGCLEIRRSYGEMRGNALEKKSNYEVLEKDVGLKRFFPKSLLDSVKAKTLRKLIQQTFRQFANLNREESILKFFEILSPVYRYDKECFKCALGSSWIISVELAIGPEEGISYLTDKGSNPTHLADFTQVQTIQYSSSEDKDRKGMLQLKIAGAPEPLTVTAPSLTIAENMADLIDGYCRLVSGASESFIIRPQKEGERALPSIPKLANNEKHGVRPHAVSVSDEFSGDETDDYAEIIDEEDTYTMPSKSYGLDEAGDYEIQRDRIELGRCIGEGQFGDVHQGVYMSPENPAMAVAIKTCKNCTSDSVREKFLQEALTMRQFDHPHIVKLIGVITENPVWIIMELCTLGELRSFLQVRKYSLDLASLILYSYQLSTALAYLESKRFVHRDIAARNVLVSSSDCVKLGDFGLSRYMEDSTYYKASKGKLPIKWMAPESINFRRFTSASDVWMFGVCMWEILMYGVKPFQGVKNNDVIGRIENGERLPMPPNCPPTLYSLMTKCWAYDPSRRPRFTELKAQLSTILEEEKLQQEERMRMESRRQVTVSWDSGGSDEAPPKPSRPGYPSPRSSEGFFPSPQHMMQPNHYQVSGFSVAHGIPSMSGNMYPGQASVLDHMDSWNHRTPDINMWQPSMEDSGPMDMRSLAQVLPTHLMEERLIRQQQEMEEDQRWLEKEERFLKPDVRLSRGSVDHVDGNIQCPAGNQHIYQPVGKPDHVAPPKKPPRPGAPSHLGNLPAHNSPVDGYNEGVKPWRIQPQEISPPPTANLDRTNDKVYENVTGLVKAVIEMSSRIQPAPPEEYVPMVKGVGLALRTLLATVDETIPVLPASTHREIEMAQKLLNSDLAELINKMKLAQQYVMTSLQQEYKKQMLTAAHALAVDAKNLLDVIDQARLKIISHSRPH

Experiments:
[1] = target: human epidermal growth factor (EGF) receptor (EGFR) (human) (UniProt P00533); experiment: co-IP; anti-EGFR immunoprecipitation from DE oocytes expressing EGFR, injected with GST-Grb7 (20 ng) with or without 60 ng SH2 domain of Grb7 as competitor, 5 nM EGF
[2] = target: human epidermal growth factor (EGF) receptor (EGFR) (human) (UniProt P00533); experiment: co-IP; anti-EGFR immunoprecipitation (Protein A Sepharose, 4 °C, PYT buffer with 500 mM NaCl, 0.05% SDS, 0.5% Triton X-100) from defolliculated (DE) oocytes expressing EGFR, injected with GST-Grb7, stimulated with 5 nM EGF; Grb7 is tyrosine-phosphorylated here; also with 100 μM Thiamet G or 15 μM OSMI-4
[3] = target: human epidermal growth factor (EGF) receptor (EGFR) (human) (UniProt P00533); experiment: condition: only in oocytes with their follicular cells (FC); co-IP; anti-EGFR immunoprecipitation (Protein A Sepharose, 4 °C, PYT buffer) from oocytes with their follicular cells (FC) expressing EGFR, injected with GST-Grb7, stimulated with 5 nM EGF; Grb7 is O-GlcNAcylated here; also with 100 μM Thiamet G

Row | binding [1] | binding [2] | binding [3] | Substance
1 | binds |  |  | SH2 domain of Grb7, GST fusion (from UniProt Q14451 431-527) (domain or fragment)
2 |  | binds | no binding | focal adhesion kinase (FAK) (from UniProt Q91738 1-1068) (enzyme)
